{"source": "paper PMC5381698", "about": "“A Quaternary Mechanism Enables the Complex Biological Functions of Octameric Human UDP-glucose Pyrophosphorylase, a Key Enzyme in Cell Metabolism” (Scientific Reports, 2015)", "binders": {"B1": {"name": "human UDP-glucose pyrophosphorylase isoform 1, wild type, StrepII-tagged, Q16851 1-508 (enzyme)", "chain": "MSRFVQDLSKAMSQDGASQFQEVIRQELELSVKKELEKILTTASSHEFEHTKKDLDGFRKLFHRFLQEKGPSVDWGKIQRPPEDSIQPYEKIKARGLPDNISSVLNKLVVVKLNGGLGTSMGCKGPKSLIGVRNENTFLDLTVQQIEHLNKTYNTDVPLVLMNSFNTDEDTKKILQKYNHCRVKIYTFNQSRYPRINKESLLPVAKDVSYSGENTEAWYPPGHGDIYASFYNSGLLDTFIGEGKEYIFVSNIDNLGATVDLYILNHLMNPPNGKRCEFVMEVTNKTRADVKGGTLTQYEGKLRLVEIAQVPKAHVDEFKSVSKFKIFNTNNLWISLAAVKRLQEQNAIDMEIIVNAKTLDGGLNVIQLETAVGAAIKSFENSLGINVPRSRFLPVKTTSDLLLVMSNLYSLNAGSLTMSEKREFPTVPLVKLGSSFTKVQDYLRRFESIPDMLELDHLTVSGDVTFGKNVSLKGTVIIIANHGDRIDIPPGAVLENKIVSGNLRILDH"}, "B2": {"name": "human UDP-glucose pyrophosphorylase isoform 1, mutant R287E, StrepII-tagged (enzyme, UniProt Q16851 1-508, looked up)", "chain": "B1 chain with R287E"}, "B3": {"name": "human UDP-glucose pyrophosphorylase isoform 1, mutant R287L, StrepII-tagged (enzyme, UniProt Q16851 1-508, looked up)", "chain": "B1 chain with R287L"}, "B4": {"name": "human UDP-glucose pyrophosphorylase isoform 1, mutant D456K, StrepII-tagged (enzyme, UniProt Q16851 1-508, looked up)", "chain": "B1 chain with D456K"}, "B5": {"name": "human UDP-glucose pyrophosphorylase isoform 1, double mutant R287E/D456K, StrepII-tagged (enzyme, UniProt Q16851 1-508, looked up)", "chain": "B1 chain with R287E, D456K"}, "B6": {"name": "human UDP-glucose pyrophosphorylase isoform 1, double mutant R287L/D456K, StrepII-tagged (enzyme, UniProt Q16851 1-508, looked up)", "chain": "B1 chain with R287L, D456K"}}, "assay_in_all_cases": "SEC; Superdex 200 10/300 GL; 50 mM HEPES pH 7.5, 5 mM MgCl2, 100 mM NaCl; data not shown; both purified", "key": {"[1]": {"target": "T1, human UDP-glucose pyrophosphorylase isoform 1, wild type, StrepII-tagged (human), Q16851", "T1 chain": "B1 chain", "conditions": "remark: other sources report otherwise"}, "[2]": {"target": "human UDP-glucose pyrophosphorylase isoform 1, mutant R287E, StrepII-tagged (human) (UniProt Q16851)"}, "[3]": {"target": "human UDP-glucose pyrophosphorylase isoform 1, mutant R287L, StrepII-tagged (human) (UniProt Q16851)"}, "[4]": {"target": "human UDP-glucose pyrophosphorylase isoform 1, mutant D456K, StrepII-tagged (human) (UniProt Q16851)"}, "[5]": {"target": "human UDP-glucose pyrophosphorylase isoform 1, double mutant R287E/D456K, StrepII-tagged (human) (UniProt Q16851)"}, "[6]": {"target": "human UDP-glucose pyrophosphorylase isoform 1, double mutant R287L/D456K, StrepII-tagged (human) (UniProt Q16851)"}}, "note": "Positions count from the first letter of the chain named. In names and notes the source's numbering stands. Results are given in words; binding and its absence hold for the method and conditions named. Some binding calls cover weakened binding; strength is not graded here. Where a sequence is shown, tags or fusion partners need not be part of it.", "data": [{"binder": "B1", "values": [{"measurement": "binding", "setting": "[1]", "result": "binds"}]}, {"binder": "B2", "values": [{"measurement": "binding", "setting": "[2]", "result": "binds"}]}, {"binder": "B3", "values": [{"measurement": "binding", "setting": "[3]", "result": "binds"}]}, {"binder": "B4", "values": [{"measurement": "binding", "setting": "[4]", "result": "binds"}]}, {"binder": "B5", "values": [{"measurement": "binding", "setting": "[5]", "result": "binds"}]}, {"binder": "B6", "values": [{"measurement": "binding", "setting": "[6]", "result": "binds"}]}]}
